Data as given in PubChem BioAssay AID1224829 (NIAID, 2016).

Aim: 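Genes needed for LPS-driven NF-kappaB p65 nuclear entry in mouse macrophages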 (follow-up of hits)
System: mouse RAW264.7 G9 macrophage reporter cells
Knock-down reagent: single siRNA against mouse genes, 100 nM
Duration: 2 days of siRNA knock-down, then 40 min of LPS before fixing
Conditions: LPS (Salmonella minnesota R595) at 10 ng/ml
Measured: 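Imaging of GFP-p65 after 40 min of LPS; nuclear over perinuclear ring intensity ratio, scaled to plate median and non-targeting control wells, given as z-score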
Direction: p65 translocation z-score: higher = more nuclear NF-kappaB p65 after LPS
Active means: 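Active means the replicate-mean z-score lies beyond plus or minus 2, in either direction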
Calls: active = changed p65 translocation (either direction); inactive = no clear change
This is an unselected part of about 3,800 reagents tested. 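Calls cover raised and lowered translocation; gene median uses one vendor's three siRNAs; qiagen siRNAs acted more weakly than ambion siRNAs.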 Entries without a mark were called inactive. The numbers tell different reagents against one gene apart. Further read-outs or replicates are left out here.

Pole3 #1, siRNA vendor or control pool ambion single siRNA — p65 translocation z-score, replicate mean = 0.48
Pole3 #2, siRNA vendor or control pool ambion single siRNA — p65 translocation z-score, replicate mean = -2.13 (active)
Pole3 #3, siRNA vendor or control pool ambion single siRNA — p65 translocation z-score, replicate mean = -2.46 (active)
Pole3 #4, siRNA vendor or control pool qiagen single siRNA — p65 translocation z-score, replicate mean = 0.604
Pole3 #5, siRNA vendor or control pool qiagen single siRNA — p65 translocation z-score, replicate mean = 1.35
Pole3 #6, siRNA vendor or control pool qiagen single siRNA — p65 translocation z-score, replicate mean = -0.546

Active calls (from the list above):
Pole3 #2, siRNA vendor or control pool ambion single siRNA — p65 translocation z-score, replicate mean = -2.13 (active)
Pole3 #3, siRNA vendor or control pool ambion single siRNA — p65 translocation z-score, replicate mean = -2.46 (active)

Next reagents follow:
Or5d35 #1, siRNA vendor or control pool ambion single siRNA — p65 translocation z-score, replicate mean = -1.31
Or5d35 #2, siRNA vendor or control pool ambion single siRNA — p65 translocation z-score, replicate mean = -3.72 (active)
Or5d35 #3, siRNA vendor or control pool ambion single siRNA — p65 translocation z-score, replicate mean = -4.89 (active)
Or5d35 #4, siRNA vendor or control pool qiagen single siRNA — p65 translocation z-score, replicate mean = 0.0656
Or5d35 #5, siRNA vendor or control pool qiagen single siRNA — p65 translocation z-score, replicate mean = 2.1 (active)
Or5d35 #6, siRNA vendor or control pool qiagen single siRNA — p65 translocation z-score, replicate mean = -1.63
